Results from patent US20250154261A1.
Positions count from the first letter of the chain named. No constants are given. Whether binding was seen depends on the method and setting. Some binding calls cover weakened binding; strength is not graded here. Blank lines part the entries; values can stand above or below the binder they belong to.

Protein sequences, listed by entry. Tags and fused reporters are not part of them. Lines headed by an entry give the natural chain unless they say otherwise; changes in a name come on top.
UniProt P20138: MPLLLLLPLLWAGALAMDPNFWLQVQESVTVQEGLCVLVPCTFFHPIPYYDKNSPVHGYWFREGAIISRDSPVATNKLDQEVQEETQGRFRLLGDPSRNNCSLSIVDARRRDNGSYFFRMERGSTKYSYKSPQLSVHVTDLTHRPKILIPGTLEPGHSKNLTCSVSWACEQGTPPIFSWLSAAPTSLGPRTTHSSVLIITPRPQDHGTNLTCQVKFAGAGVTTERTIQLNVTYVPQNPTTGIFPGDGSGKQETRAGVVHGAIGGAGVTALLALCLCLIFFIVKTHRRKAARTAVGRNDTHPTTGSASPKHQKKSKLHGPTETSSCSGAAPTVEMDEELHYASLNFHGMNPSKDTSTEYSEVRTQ

Legend:
[1] = molecular target: V domain of human CD33 (human) (UniProt P20138); test: SPR captured Fab
[2] = molecular target: Deglycosylated V domain of human CD33 (human) (UniProt P20138); test: SPR captured Fab

- binding [1]: binds
- binding [2]: binds
B1: ADI-10157 Fab (Fab, V domains shown)
VH: QVQLQESGPGLVKPSETLSLTCTVSGGSISSYYWSWIRQPPGKGLEWIGSIYYSGSTNYNPSLKSRVTISVDTSKNQFSLKLSSVTAADTAVYYCARVGGVYSTIETYGMDVWGQGTTVTVSS
VL: EIVMTQSPATLSVSPGERATLSCRASQSVSSNLAWYQQKPGQAPRLLIYGASTRATGIPARFSGSGSGTEFTLTISSLQSEDFAVYYCQQYTVYPPTFGGGTKVEIK

- binding [1]: binds
- binding [2]: binds
B2: ADI-11830 Fab (Fab, V domains shown)
VH: EVQLVESGGGLVQPGGSLRLSCAASGFTFSSYWMSWVRQAPGKGLEWVANINTDGSEVYYVDSVKGRFTISRDNAKNSLYLQMNSLRAEDTAVYYCARDVGPGIAYQGHFDYWGQGTLVTVSS
VL: DIQMTQSPSSLSASVGDRVTITCRASQVIYSYLNWYQQKPGKAPKLLIYAASSLKSGVPSRFSGSGSGTDFTLTISSLQPEDFATYYCQQVYDTPLTFGGGTKVEIK

- binding [1]: binds
- binding [2]: binds
B3: ADI-11828 Fab (Fab, V domains shown)
VH: B2 VH with T53Q
VL: B2 VL with V28S, S31Y, L54R, K55Q

- binding [1]: binds
- binding [2]: binds
B4: ADI-11826 Fab (Fab, V domains shown)
VH: EVQLVESGGGLVQPGGSLRLSCAASGFTFPGYWMSWVRQAPGKGLEWVANINQDGSEVYYVDSVKGRFTISRDNAKNSLYLQMNSLRAEDTAVYYCAREANYYGNVGDDYWGQGTLVTVSS
VL: B2 VL with V28S, S31N, L54T, K55Q, V91A, Y92F, D93H, T94V, L96I

- binding [1]: binds
- binding [2]: binds
B5: ADI-11825 Fab (Fab, V domains shown)
VH: B4 VH with P30G, V58E
VL: B2 VL with V28S, S31N, S53N, K55H, V91A, Y92F, D93H, T94V, L96I

- binding [1]: binds
- binding [2]: binds
B6: ADI-10159 Fab (Fab, V domains shown)
VH: EVQLVESGGGLVQPGGSLRLSCAASGFTFSSYGMSWVRQAPGKGLEWVANIKQDGSEKYYVDSVKGRFTISRDNAKNSLYLQMNSLRAEDTAVYYCAREGGPYYDSSGYFVYYGMDVWGQGTTVTVSS
VL: DIQMTQSPSTLSASVGDRVTITCRASQSISSWLAWYQQKPGKAPKLLIYDASSLESGVPSRFSGSGSGTEFTLTISSLQPDDFATYYCQQYESFPTFGGGTKVEIK

- binding [1]: binds
- binding [2]: binds
B7: ADI-11819 Fab (Fab, V domains shown)
VH: EVQLVESGGGLVKPGGSLRLSCAASGFTFSSYAMSWVRQAPGKGLEWVSSISSSSEGIYYADSVKGRFTISRDNAKNSLYLQMNSLRAEDTAVYYCAREGGPYYDSSGYFVYYGMDVWGQGTTVTVSS
VL: B6 VL with Q27N, D50E, L54T, E55K, E92D, S93D, F94L

- binding [1]: binds
- binding [2]: binds
B8: ADI-11776 Fab (Fab, V domains shown)
VH: EVQLLESGGGLVQPGGSLRLSCAASGFTFSKYTMSWVRQAPGKGLEWVSAIVGSGESTYFADSVKGRFTISRDNSKNTLYLQMNSLRAEDTAVYYCAREGGPYYDSSGYFVYYGMDVWGQGTTVTVSS
VL: B6 VL with D50K, E92D, S93D, F94L

- binding [1]: binds
- binding [2]: binds
B9: ADI-11807 Fab (Fab, V domains shown)
VH: EVQLVESGGGLVQPGGSLRLSCAASGFTFGSYWMSWVRQAPGKGLEWVATIKQDGSEKSYVDSVKGRFTISRDNAKNSLYLQMNSLRAEDTAVYYCARPLNAGELDVWGQGTMVTVSS
VL: DIQMTQSPSTLSASVGDRVTITCRASQSISSWLAWYQQKPGKAPKLLIYEASSLESGVPSRFSGSGSGTEFTLTISSLQPDDFATYYCQQSQSYPPITFGGGTKVEIK

- binding [1]: binds
- binding [2]: binds
B10: ADI-10177 Fab (Fab, V domains shown)
VH: B9 VH with G30S, T50N, S59Y
VL: DIQMTQSPSTLSASVGDRVTITCRASQSISSWLAWYQQKPGKAPKLLIYEASSLESGVPSRFSGSGSGTEFTLTISSLQPDDFATYYCQQLESYPLTFGGGTKVEIK

- binding [1]: binds
- binding [2]: binds
B11: ADI-11809 Fab (Fab, V domains shown)
VH: B9 VH with G30P, Q53R, S59G
VL: B9 VL

- binding [1]: binds
- binding [2]: binds
B12: ADI-11839 Fab (Fab, V domains shown)
VH: QVQLVQSGAEVKKPGASVKVSCKASGYTFSNYYMHWVRQAPGQGLEWMGWINPFSGGTRYAQKFQGRVTMTRDTSTSTVYMELSSLRSEDTAVYYCARDVGSSAYYYMDVWGKGTTVTVSS
VL: DIQMTQSPSSVSASVGDRVTITCEASKGISSWLAWYQQKPGKAPKLLIYAASDLQSGVPSRFSGSGSGTDFTLTISSLQPEDFATYYCQQAFLFPPTFGGGTKVEIK

- binding [2]: binds
B13: ADI-10161 Fab (Fab, V domains shown)
VH: EVQLVESGGGLVQPGGSLRLSCAASGFTFSSYWMSWVRQAPGKGLEWVANINQDGSEKYYVDSVKGRFTISRDNAKNSLYLQMNSLRAEDTAVYYCAREGGDSWYHAFDIWGQGTMVTVSS
VL: B12 VL with E24R, K27Q, D53N, A91K, F92L, L93S, F94L, P96L
